{"source": "PubChem BioAssay AID720505, Drosophila RNAi Screening Center, 2013", "aim": "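Genes needed for store-operated calcium entry in fly cells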 (primary screen)", "cells": "Drosophila S2R+ cells", "knock-down reagent": "long dsRNA against Drosophila genes", "treatment": "thapsigargin (2 µM) in calcium-free buffer to empty internal stores, then 2 mM calcium added back", "measurement": "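Stores emptied by 2 µM thapsigargin without calcium, then 2 mM calcium re-added; fluo-4 fluorescence followed by FLIPR in 384-well plates, per-well averaged endpoint, raw; two screen passes, some wells retested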", "scale": "calcium signal and retest calcium signal: higher = more calcium entry after store depletion", "active means": "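Knock-downs counted as hits when calcium entry dropped relative to STIM1 positive and Rho1 negative controls present on each plate; roughly 1500 genes called, with reductions of differing size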", "meaning of the calls": "active = called as lowering calcium entry; inactive = not called", "note": "In all, the deposit lists about 20,000 reagents; this is an unselected part of those that have a named target and a result. Over the whole deposit, about 2,100 (10%) are marked active. 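Raw plate signals without normalisation; calls rest on control-based scores that were not deposited; replicate 2 separates called from uncalled poorly.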 The record does not give: the amount of reagent, the time to read-out."}
{"gene knocked down": "mEFTs", "DRSC id": "DRSC02953", "calcium signal, replicate 1": 84.3, "calcium signal, replicate 2": 112, "Outcome": "inactive"}
{"gene knocked down": "brp", "DRSC id": "DRSC06245", "calcium signal, replicate 1": 143, "calcium signal, replicate 2": 123, "Outcome": "inactive"}
{"gene knocked down": "brp", "DRSC id": "DRSC06246", "calcium signal, replicate 1": 152, "calcium signal, replicate 2": 162, "Outcome": "inactive"}
{"gene knocked down": "brp", "DRSC id": "DRSC06801", "calcium signal, replicate 1": 140, "calcium signal, replicate 2": 146, "Outcome": "inactive"}
{"gene knocked down": "brp", "DRSC id": "DRSC21893", "calcium signal, replicate 1": 113, "calcium signal, replicate 2": 295, "Outcome": "inactive"}
{"gene knocked down": "CG4074", "DRSC id": "DRSC11752", "calcium signal, replicate 1": 100, "calcium signal, replicate 2": 176, "Outcome": "inactive"}
{"gene knocked down": "CanB2", "DRSC id": "DRSC07355", "calcium signal, replicate 1": 144, "calcium signal, replicate 2": 143, "Outcome": "inactive"}
{"gene knocked down": "CG34171", "DRSC id": "DRSC01637", "calcium signal, replicate 1": 76.3, "calcium signal, replicate 2": 211, "Outcome": "inactive"}
{"gene knocked down": "PGS1", "DRSC id": "DRSC16304", "calcium signal, replicate 1": 189, "calcium signal, replicate 2": 194, "Outcome": "inactive"}
{"gene knocked down": "CG7135", "DRSC id": "DRSC20026", "calcium signal, replicate 1": 90.6, "calcium signal, replicate 2": 153, "Outcome": "inactive"}
{"gene knocked down": "CG16812", "DRSC id": "DRSC02519", "calcium signal, replicate 1": 128, "calcium signal, replicate 2": 91.5, "Outcome": "inactive"}
{"gene knocked down": "E(var)3-9", "DRSC id": "DRSC14451", "calcium signal, replicate 1": 98.7, "calcium signal, replicate 2": 142, "Outcome": "inactive"}
{"gene knocked down": "E(var)3-9", "DRSC id": "DRSC23242", "calcium signal, replicate 1": 101, "calcium signal, replicate 2": 132, "Outcome": "inactive"}
{"gene knocked down": "ng2", "DRSC id": "DRSC18803", "calcium signal, replicate 1": 69.4, "calcium signal, replicate 2": 100, "Outcome": "inactive"}
{"gene knocked down": "CG9287", "DRSC id": "DRSC03186", "calcium signal, replicate 1": 191, "calcium signal, replicate 2": 143, "retest calcium signal, replicate 1": 95.1, "retest calcium signal, replicate 2": 102, "Outcome": "inactive"}
{"gene knocked down": "CG9287", "DRSC id": "DRSC22790", "calcium signal, replicate 1": 86.6, "calcium signal, replicate 2": 98.8, "Outcome": "inactive"}
{"gene knocked down": "Uch-L5R", "DRSC id": "DRSC19825", "calcium signal, replicate 1": 126, "calcium signal, replicate 2": 93.3, "Outcome": "inactive"}
{"gene knocked down": "bru3", "DRSC id": "DRSC09280", "calcium signal, replicate 1": 9219, "calcium signal, replicate 2": 146, "Outcome": "inactive"}
{"gene knocked down": "bru3", "DRSC id": "DRSC09292", "Outcome": "active"}
{"gene knocked down": "bru3", "DRSC id": "DRSC09687", "calcium signal, replicate 1": 88.4, "calcium signal, replicate 2": 100, "Outcome": "inactive"}
{"gene knocked down": "bru3", "DRSC id": "DRSC09887", "calcium signal, replicate 1": 108, "calcium signal, replicate 2": 82.6, "Outcome": "inactive"}
{"gene knocked down": "bru3", "DRSC id": "DRSC22732", "calcium signal, replicate 1": 182, "calcium signal, replicate 2": 206, "Outcome": "inactive"}
{"gene knocked down": "Or30a", "DRSC id": "DRSC03385", "calcium signal, replicate 1": 135, "calcium signal, replicate 2": 132, "Outcome": "inactive"}
{"gene knocked down": "CG11360", "DRSC id": "DRSC17134", "calcium signal, replicate 1": 124, "calcium signal, replicate 2": 174, "Outcome": "inactive"}
{"gene knocked down": "CG33332", "DRSC id": "DRSC15504", "calcium signal, replicate 1": 110, "calcium signal, replicate 2": 173, "Outcome": "inactive"}
{"gene knocked down": "Cpr47Eg", "DRSC id": "DRSC07330", "calcium signal, replicate 1": 102, "calcium signal, replicate 2": 137, "Outcome": "inactive"}
{"gene knocked down": "CG7668", "DRSC id": "DRSC10901", "calcium signal, replicate 1": 107, "calcium signal, replicate 2": 105, "Outcome": "inactive"}
{"gene knocked down": "psq", "DRSC id": "DRSC07668", "calcium signal, replicate 1": 135, "calcium signal, replicate 2": 133, "Outcome": "inactive"}
{"gene knocked down": "psq", "DRSC id": "DRSC23094", "calcium signal, replicate 1": 99.6, "calcium signal, replicate 2": 147, "Outcome": "inactive"}
{"gene knocked down": "CG11816", "DRSC id": "DRSC19428", "calcium signal, replicate 1": 109, "calcium signal, replicate 2": 98.5, "Outcome": "inactive"}
{"gene knocked down": "CG11504", "DRSC id": "DRSC14318", "calcium signal, replicate 1": 132, "calcium signal, replicate 2": 136, "Outcome": "inactive"}
{"gene knocked down": "IRSp53", "DRSC id": "DRSC10891", "calcium signal, replicate 1": 86.5, "calcium signal, replicate 2": 101, "Outcome": "inactive"}
{"gene knocked down": "Pldn", "DRSC id": "DRSC10137", "calcium signal, replicate 1": 89.5, "calcium signal, replicate 2": 101, "Outcome": "inactive"}
{"gene knocked down": "CG10591", "DRSC id": "DRSC09748", "calcium signal, replicate 1": 63.5, "calcium signal, replicate 2": 111, "Outcome": "active"}
{"gene knocked down": "Cand1", "DRSC id": "DRSC01992", "calcium signal, replicate 1": 73.7, "calcium signal, replicate 2": 93.8, "Outcome": "inactive"}

Only “calcium signal, replicate 1” (5 entries from above):
CanB2 [DRSC07355]: 144
CG34171 [DRSC01637]: 76.3
PGS1 [DRSC16304]: 189
CG7135 [DRSC20026]: 90.6
CG16812 [DRSC02519]: 128
